Experimental findings from paper doi:10.1101/555896 are described below.

Results are given in words; binding and its absence hold for the method and conditions named. Binding seen in cells or lysates may run through a third protein. Some binding calls cover weakened binding; strength is not graded here.

The target of this assay is Flag-HA-tagged AGO1 (human) (UniProt Q9UL18). In words: co-IP.

For the substance “Ran-binding protein 2 (RanBP2) (from UniProt P49792 1-3224)”, the binding result was “binds”.
